PubChem BioAssay AID743454 | Peter MacCallum Cancer Centre | 2014
This is an unselected part of about 18,000 reagents tested. Over the whole deposit, 450 (2.5%) got an active call. 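Single biological run; no consistent viability z cut-off exists, so the class columns, not z-scores, define the calls.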

- Screen: 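Search for knock-downs that restore vorinostat killing in resistant colon cancer cells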 (primary screen)
- Cells: human HCT116-VR colon cancer cells, selected for vorinostat resistance
- Reagent: siRNA pool against human genes, 40 nM siRNA pool
- Duration: vorinostat for 24 h, read-out about 72 h after transfection
- Conditions: vorinostat at 2.5 µM final
- Measurement: 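Cell viability by CellTiter-Fluor and caspase 3/7 activity by luminescence, each scaled to mock wells per plate, duplicates averaged, then robust z-scored over all plates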
- Scale: viability robust z-score: higher = more viable cells than screen typical; caspase robust z-score: higher = more caspase 3/7 activity than screen typical
- Hit rule: 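a knock-down is a hit when classed RV1 or RV2 for lowered viability, or CA1 or CA2 for caspase activation; those lethal without drug were dropped; hits were retested singly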

For CCNB1, how do the results read?
viability hit class: no change; caspase hit class: no change; viability robust z-score: -2.24; caspase robust z-score: 4.42; Outcome: inactive

How did the screen score ZDHHC7?
viability hit class: no change; caspase hit class: no change; viability robust z-score: 0; caspase robust z-score: -0.62; Outcome: inactive

For CYLD, what was measured?
viability hit class: no change; caspase hit class: no change; viability robust z-score: -0.08; caspase robust z-score: -0.48; Outcome: inactive

Which result is listed for ZFC3H1?
viability hit class: no change; caspase hit class: no change; viability robust z-score: 0.61; caspase robust z-score: 0.56; Outcome: inactive

Which result is listed for SLC26A6?
viability hit class: no change; caspase hit class: no change; viability robust z-score: 0.91; caspase robust z-score: 0.08; Outcome: inactive

For DLK1, what was measured?
viability hit class: no change; caspase hit class: no change; viability robust z-score: 0.66; caspase robust z-score: -0.06; Outcome: inactive

Which result is listed for UQCC1?
viability hit class: no change; caspase hit class: no change; viability robust z-score: 0.6; caspase robust z-score: -0.04; Outcome: inactive

With ZNF785, what does the deposit list?
viability hit class: no change; caspase hit class: no change; viability robust z-score: 0.26; caspase robust z-score: 0.59; Outcome: inactive

What is on record for NEK1?
viability hit class: no change; caspase hit class: no change; viability robust z-score: -0.43; caspase robust z-score: -0.9; Outcome: inactive

For BPIFA3, what does the deposit list?
viability hit class: no change; caspase hit class: no change; viability robust z-score: 0.21; caspase robust z-score: -0.26; Outcome: inactive

What is on record for SHCBP1?
viability hit class: no change; caspase hit class: no change; viability robust z-score: 0; caspase robust z-score: 0.44; Outcome: inactive

With SLC6A15, what was measured?
viability hit class: no change; caspase hit class: no change; viability robust z-score: 0.86; caspase robust z-score: 1.31; Outcome: inactive

With MTX2, how do the results read?
viability hit class: no change; caspase hit class: no change; viability robust z-score: 0.48; caspase robust z-score: 0.52; Outcome: inactive

How did the screen score VAPB?
viability hit class: no change; caspase hit class: no change; viability robust z-score: -0.4; caspase robust z-score: 0.78; Outcome: inactive

What is on record for SRGAP3?
viability hit class: no change; caspase hit class: no change; viability robust z-score: 0.26; caspase robust z-score: -0.94; Outcome: inactive

With RGS20, what was measured?
viability hit class: no change; caspase hit class: no change; viability robust z-score: -2.62; caspase robust z-score: 3.1; Outcome: inactive

With RAB3D, how do the results read?
viability hit class: no change; caspase hit class: no change; viability robust z-score: 1.06; caspase robust z-score: -0.41; Outcome: inactive

For PTGR3, what was measured?
viability hit class: no change; caspase hit class: no change; viability robust z-score: 1.06; caspase robust z-score: -0.57; Outcome: inactive

What is on record for UAP1L1?
viability hit class: no change; caspase hit class: no change; viability robust z-score: 0.04; caspase robust z-score: -0.74; Outcome: inactive

For RFPL3, what does the deposit list?
viability hit class: no change; caspase hit class: no change; viability robust z-score: -2.61; caspase robust z-score: 0.91; Outcome: inactive

Which result is listed for AGFG2?
viability hit class: no change; caspase hit class: no change; viability robust z-score: -0.68; caspase robust z-score: 0.68; Outcome: inactive

What is on record for SDK2?
viability hit class: no change; caspase hit class: no change; viability robust z-score: 0.76; caspase robust z-score: 0.16; Outcome: inactive

How did the screen score ABCC1?
viability hit class: no change; caspase hit class: no change; viability robust z-score: 0.62; caspase robust z-score: 1.12; Outcome: inactive

How did the screen score TMF1?
viability hit class: no change; caspase hit class: no change; viability robust z-score: -0.55; caspase robust z-score: -1.14; Outcome: inactive

With KCTD10, what was measured?
viability hit class: no change; caspase hit class: no change; viability robust z-score: 1.02; caspase robust z-score: 0.08; Outcome: inactive

With CKAP2L, what does the deposit list?
viability hit class: no change; caspase hit class: no change; viability robust z-score: 0.44; caspase robust z-score: 0.64; Outcome: inactive

For LIM2, what was measured?
viability hit class: no change; caspase hit class: no change; viability robust z-score: 0.51; caspase robust z-score: -0.46; Outcome: inactive

Single entries from the list:
Entry for ZFC3H1 in “caspase robust z-score”: 0.56
Value of BPIFA3 under “caspase hit class”: no change
